Data: the supplement of paper PMC12067093, “Discovery and optimisation of a covalent ligand for TRIM25 and its application to targeted protein ubiquitination” (Chemical Science, 2025)
The other results are listed elsewhere or left out.

Chains of the proteins cited; added tags and fusions are not shown. Lines headed by an entry give the natural chain unless they say otherwise; changes in a name come on top.
UniProt Q9BV73: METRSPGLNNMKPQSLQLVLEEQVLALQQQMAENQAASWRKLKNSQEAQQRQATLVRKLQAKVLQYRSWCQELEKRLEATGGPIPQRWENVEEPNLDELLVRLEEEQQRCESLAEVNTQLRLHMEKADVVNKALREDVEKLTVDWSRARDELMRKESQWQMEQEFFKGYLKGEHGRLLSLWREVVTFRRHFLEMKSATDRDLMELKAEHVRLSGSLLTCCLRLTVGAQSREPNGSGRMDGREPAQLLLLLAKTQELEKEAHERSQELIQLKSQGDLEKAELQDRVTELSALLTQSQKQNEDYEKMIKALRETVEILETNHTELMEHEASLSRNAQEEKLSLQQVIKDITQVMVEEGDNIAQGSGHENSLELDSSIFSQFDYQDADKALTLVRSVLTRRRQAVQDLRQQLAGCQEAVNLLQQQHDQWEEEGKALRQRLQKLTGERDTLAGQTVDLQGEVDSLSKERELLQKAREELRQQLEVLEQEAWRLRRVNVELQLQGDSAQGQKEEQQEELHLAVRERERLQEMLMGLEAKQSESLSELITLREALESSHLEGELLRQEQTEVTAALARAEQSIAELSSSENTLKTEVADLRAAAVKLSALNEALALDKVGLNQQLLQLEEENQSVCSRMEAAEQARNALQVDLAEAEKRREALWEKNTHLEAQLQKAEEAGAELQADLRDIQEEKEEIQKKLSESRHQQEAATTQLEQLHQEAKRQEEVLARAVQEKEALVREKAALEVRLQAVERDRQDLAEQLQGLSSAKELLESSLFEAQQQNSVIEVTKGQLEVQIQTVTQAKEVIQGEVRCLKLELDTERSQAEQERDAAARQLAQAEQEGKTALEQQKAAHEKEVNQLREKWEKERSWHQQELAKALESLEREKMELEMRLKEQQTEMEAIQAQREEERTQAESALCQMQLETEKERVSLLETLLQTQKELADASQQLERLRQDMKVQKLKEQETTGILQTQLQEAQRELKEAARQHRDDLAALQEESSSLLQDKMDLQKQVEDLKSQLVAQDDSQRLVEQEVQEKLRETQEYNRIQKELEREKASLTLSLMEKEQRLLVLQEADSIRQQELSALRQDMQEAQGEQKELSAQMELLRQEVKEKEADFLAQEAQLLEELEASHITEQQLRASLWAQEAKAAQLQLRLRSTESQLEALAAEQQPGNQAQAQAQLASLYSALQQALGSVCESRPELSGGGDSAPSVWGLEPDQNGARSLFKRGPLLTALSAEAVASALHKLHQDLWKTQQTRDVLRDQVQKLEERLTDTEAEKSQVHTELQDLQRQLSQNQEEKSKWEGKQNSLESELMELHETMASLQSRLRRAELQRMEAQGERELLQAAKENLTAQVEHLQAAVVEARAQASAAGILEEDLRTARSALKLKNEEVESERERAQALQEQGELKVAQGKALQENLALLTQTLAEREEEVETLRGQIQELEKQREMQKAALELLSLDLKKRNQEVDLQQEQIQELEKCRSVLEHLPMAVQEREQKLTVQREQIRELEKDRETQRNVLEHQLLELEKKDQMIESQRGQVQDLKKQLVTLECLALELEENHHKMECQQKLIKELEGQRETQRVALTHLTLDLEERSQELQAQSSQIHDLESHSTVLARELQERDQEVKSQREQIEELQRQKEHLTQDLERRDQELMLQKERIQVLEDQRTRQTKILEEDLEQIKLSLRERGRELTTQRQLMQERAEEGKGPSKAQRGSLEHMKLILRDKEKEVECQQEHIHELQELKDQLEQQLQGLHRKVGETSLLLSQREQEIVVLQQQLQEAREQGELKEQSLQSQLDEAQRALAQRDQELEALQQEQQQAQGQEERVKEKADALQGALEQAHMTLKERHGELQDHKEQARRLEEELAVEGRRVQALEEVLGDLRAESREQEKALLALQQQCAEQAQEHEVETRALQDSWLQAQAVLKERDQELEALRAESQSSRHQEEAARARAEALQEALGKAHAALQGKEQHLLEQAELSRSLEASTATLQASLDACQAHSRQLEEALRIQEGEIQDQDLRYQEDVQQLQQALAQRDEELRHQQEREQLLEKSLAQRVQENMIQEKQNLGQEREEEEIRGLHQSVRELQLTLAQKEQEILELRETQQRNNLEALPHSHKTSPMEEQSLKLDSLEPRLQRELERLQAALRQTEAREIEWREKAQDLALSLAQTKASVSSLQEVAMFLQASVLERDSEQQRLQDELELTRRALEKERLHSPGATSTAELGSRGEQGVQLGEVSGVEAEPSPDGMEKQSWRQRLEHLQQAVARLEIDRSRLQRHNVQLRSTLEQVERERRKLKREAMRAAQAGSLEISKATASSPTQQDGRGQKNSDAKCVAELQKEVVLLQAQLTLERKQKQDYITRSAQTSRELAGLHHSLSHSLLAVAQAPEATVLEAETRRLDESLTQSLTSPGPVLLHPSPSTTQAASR
UniProt Q99832: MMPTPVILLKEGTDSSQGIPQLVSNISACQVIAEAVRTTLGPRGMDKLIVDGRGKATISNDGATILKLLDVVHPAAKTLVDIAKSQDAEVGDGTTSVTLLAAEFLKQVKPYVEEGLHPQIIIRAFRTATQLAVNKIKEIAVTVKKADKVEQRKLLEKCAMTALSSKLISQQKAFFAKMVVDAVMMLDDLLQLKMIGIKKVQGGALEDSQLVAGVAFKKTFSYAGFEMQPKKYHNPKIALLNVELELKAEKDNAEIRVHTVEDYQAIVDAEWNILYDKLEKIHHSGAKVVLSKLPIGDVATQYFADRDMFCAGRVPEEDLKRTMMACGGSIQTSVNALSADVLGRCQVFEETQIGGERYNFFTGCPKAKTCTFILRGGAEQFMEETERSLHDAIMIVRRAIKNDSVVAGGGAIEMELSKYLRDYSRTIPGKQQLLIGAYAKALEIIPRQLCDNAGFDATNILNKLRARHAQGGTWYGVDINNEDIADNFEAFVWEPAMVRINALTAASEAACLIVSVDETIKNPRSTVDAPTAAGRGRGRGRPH
UniProt P32970: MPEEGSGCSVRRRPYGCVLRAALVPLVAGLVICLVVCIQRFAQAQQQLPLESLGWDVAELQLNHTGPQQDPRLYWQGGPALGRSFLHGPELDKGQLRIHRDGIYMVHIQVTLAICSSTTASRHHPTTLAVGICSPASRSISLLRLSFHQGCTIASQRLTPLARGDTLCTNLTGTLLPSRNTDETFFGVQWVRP
UniProt Q96GN5: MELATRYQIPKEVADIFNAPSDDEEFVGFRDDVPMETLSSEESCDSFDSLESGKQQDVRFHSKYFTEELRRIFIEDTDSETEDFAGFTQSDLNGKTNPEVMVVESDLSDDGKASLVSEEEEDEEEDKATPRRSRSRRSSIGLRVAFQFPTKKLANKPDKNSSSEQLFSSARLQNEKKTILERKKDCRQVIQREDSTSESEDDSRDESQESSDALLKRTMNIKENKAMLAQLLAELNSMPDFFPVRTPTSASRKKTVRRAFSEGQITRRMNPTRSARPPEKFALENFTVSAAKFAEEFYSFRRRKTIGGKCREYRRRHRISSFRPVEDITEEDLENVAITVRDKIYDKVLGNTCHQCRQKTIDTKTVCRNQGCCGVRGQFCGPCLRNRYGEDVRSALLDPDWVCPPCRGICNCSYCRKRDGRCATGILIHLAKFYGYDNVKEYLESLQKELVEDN
UniProt P50990: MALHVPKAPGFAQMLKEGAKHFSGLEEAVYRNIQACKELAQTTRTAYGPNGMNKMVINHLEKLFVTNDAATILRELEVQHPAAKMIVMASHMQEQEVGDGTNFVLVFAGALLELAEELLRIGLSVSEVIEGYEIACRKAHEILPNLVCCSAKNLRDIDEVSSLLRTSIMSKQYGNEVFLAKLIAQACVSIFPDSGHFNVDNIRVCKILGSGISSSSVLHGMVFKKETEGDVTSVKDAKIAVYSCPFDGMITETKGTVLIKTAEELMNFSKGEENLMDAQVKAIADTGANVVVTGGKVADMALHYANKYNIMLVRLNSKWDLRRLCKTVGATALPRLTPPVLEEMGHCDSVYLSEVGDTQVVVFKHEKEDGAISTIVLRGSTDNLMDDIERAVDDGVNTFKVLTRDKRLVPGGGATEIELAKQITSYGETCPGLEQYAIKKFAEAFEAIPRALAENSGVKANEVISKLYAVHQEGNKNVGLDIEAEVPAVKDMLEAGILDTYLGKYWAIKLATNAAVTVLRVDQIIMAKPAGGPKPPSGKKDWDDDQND
UniProt Q13042, whole entry, looked up: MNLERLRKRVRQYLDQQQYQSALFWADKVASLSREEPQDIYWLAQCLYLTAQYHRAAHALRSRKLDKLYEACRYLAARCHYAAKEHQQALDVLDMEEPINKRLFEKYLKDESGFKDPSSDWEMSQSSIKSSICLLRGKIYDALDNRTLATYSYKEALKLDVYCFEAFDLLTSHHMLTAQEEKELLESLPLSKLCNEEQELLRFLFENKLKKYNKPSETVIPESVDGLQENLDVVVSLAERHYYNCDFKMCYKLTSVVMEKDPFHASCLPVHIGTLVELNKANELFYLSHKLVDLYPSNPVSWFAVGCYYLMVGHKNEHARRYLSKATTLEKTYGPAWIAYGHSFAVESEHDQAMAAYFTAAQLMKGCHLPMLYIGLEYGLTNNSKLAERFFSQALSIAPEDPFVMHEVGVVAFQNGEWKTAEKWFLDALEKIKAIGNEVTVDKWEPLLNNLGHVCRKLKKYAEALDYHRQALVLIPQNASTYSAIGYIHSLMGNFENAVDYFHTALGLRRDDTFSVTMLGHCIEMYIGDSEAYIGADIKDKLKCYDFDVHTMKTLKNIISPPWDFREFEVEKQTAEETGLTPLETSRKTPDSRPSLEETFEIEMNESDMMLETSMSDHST
UniProt Q7Z7K6: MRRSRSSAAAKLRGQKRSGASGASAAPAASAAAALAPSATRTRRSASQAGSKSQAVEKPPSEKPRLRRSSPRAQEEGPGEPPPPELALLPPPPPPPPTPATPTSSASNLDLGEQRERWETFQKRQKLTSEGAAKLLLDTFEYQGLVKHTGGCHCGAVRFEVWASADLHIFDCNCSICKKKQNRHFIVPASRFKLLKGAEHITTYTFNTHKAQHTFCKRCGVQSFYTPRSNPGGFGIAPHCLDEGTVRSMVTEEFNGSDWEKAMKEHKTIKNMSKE
UniProt Q6ZU80: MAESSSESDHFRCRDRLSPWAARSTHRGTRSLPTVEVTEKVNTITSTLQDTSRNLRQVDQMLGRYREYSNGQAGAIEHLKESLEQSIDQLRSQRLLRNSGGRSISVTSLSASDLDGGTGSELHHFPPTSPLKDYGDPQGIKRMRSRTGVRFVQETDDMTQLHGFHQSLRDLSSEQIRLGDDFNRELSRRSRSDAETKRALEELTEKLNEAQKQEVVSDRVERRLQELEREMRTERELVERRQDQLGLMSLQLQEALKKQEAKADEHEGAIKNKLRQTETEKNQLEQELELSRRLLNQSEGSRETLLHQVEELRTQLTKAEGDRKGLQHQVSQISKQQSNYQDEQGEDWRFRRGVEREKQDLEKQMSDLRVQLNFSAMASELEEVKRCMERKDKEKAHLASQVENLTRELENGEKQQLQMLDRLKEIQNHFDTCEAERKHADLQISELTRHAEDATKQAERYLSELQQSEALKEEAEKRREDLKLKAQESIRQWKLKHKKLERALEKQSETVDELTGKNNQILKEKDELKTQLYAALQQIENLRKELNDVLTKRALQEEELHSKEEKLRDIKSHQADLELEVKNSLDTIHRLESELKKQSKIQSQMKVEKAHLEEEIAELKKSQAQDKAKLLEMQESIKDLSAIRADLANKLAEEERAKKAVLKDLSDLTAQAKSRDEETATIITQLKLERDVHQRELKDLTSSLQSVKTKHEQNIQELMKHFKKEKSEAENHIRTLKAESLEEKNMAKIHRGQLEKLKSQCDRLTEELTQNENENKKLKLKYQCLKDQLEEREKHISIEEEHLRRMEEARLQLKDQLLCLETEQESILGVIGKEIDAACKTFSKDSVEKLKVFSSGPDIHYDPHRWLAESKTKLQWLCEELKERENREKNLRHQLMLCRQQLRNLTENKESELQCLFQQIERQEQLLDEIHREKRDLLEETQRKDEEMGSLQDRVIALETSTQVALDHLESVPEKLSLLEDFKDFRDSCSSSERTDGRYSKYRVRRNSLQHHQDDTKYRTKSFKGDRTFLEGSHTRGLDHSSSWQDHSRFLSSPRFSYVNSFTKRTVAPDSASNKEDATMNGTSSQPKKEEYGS
UniProt P13987: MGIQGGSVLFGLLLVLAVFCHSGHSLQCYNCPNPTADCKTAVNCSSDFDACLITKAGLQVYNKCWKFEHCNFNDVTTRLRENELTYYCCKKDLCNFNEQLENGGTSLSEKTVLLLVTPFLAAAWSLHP
UniProt P28907, whole entry, looked up: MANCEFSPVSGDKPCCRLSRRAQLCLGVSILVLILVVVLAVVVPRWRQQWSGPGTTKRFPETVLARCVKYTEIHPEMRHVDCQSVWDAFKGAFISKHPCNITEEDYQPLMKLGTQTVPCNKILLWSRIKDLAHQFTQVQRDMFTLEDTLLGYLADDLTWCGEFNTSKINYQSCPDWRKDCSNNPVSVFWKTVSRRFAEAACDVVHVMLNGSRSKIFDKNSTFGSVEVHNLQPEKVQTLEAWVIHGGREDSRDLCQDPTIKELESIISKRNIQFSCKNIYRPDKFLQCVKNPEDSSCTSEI

Compound: Cc1cc(ccc1-c1ccccc1)C(=O)N1CCCN(CC1)C(=O)CCl [compound 10]
Experiment: probe-labelled cysteine peptide fold change vs DMSO (competition) (log2 fold change); higher = less target engagement (more negative = stronger competition)
Details: THP-1, incubation time: 4 h
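Further: competitive profiling in live THP-1 cells: cysteine peptides tagged with an iodoacetamide desthiobiotin (IA-DTB) probe, intensity after compound treatment relative to DMSO-treated cells.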

| Target | probe-labelled cysteine peptide fold change (10 µM) | probe-labelled cysteine peptide fold change (50 µM) |
| --- | --- | --- |
| CEP76_Q8TAP6_414_GVPHAWVMTCGTDGAITFWESLTGHR (UniProt Q8TAP6) | 0.187 | 0.262 |
| CEP55_Q53EZ4_462_DLLVHVEYCSK (UniProt Q53EZ4) | 0.0253 | -0.153 |
| CD81_P60033_175_NNLCPSGSNIISNLFK (UniProt P60033) | -0.0474 | 0.0727 |
| CFAP20_Q9Y6A4_119_VKPFICTMPMR (UniProt Q9Y6A4) | 0.0829 | -0.0715 |
| CEP250_Q9BV73_2348_CVAELQK (UniProt Q9BV73) | -0.0127 | -0.282 |
| CDC27_P30260_184_FTSLQNFSNCLPNSCTTQVPNHSLSHR (UniProt P30260) | -0.0972 | -0.0783 |
| CD300LF_Q8TDQ1_264_EDISYASLTLGAEDQEPTYCNMGHLSSHLPGR (UniProt Q8TDQ1) | 0.00191 | -0.274 |
| CEP250_Q9BV73_2008_SLEASTATLQASLDACQAHSR (UniProt Q9BV73) | 0.113 | 0.0704 |
| CCT7_Q99832_29_EGTDSSQGIPQLVSNISACQVIAEAVR (UniProt Q99832) | 0.0492 | 0.104 |
| CD44_P16070_53_TEAADLCK (UniProt P16070) | -0.237 | -0.12 |
| CCT6A_P40227_282_VCGDSDK (UniProt P40227) | 0.0167 | 0.153 |
| CENPF_P49454_1426_ILHDQHCQMSSK (UniProt P49454) | 0.127 | 0.137 |
| CDC23_Q9UJX2_324_SELSYLAHNLCEIDK (UniProt Q9UJX2) | 0.135 | 0.0685 |
| CDC23_Q9UJX2_532_LWDEASTCAQK (UniProt Q9UJX2) | -0.064 | -0.308 |
| CFD_P00746_148_VDRDVAPGTLCDVAGWGIVNHAGR (UniProt P00746) | -0.0268 | -0.246 |
| CCT7_Q99832_345_CQVFEETQIGGER (UniProt Q99832) | 0.0913 | 0.138 |
| CD2BP2_O95400_234_GLGCQTLGPHNPTPPPSLDMFAEELAEEELETPTPTQR (UniProt O95400) | -0.0376 | -0.382 |
| CEP152_O94986_1019_ETELQTCLDQSR (UniProt O94986) | 0.0172 | 0.0625 |
| CENPF_P49454_1291_YISGPHELSTSQNDNAHLQCSLQTTMNK (UniProt P49454) | 0.101 | -0.0749 |
| CDC42BPB_Q9Y5S2_1328_GCQLMATATLKR (UniProt Q9Y5S2) | 0.1 | -0.265 |
| CDAN1_Q8IWY9_1017_ACEHHAPLPSHLISEIK (UniProt Q8IWY9) | 0.188 | -0.15 |
| CCT7_Q99832_364_YNFFTGCPK (UniProt Q99832) | -0.23 | -0.0387 |
| CDK6_Q00534_280_CLTFNPAK (UniProt Q00534) | 0.199 | -0.0193 |
| CD37_P11049_217_HSADICAVPAESHIYR (UniProt P11049) | -0.396 | -0.279 |
| CD70_P32970_8_PEEGSGCSVR (UniProt P32970) | -0.461 | -0.763 |

| Target | probe-labelled cysteine peptide fold change (10 µM) | probe-labelled cysteine peptide fold change (50 µM) |
| --- | --- | --- |
| CDK5RAP2_Q96SN8_508_DLEVIQQNCYLMAAEDLELR (UniProt Q96SN8) | -0.00437 | 0.476 |
| CCT6A_P40227_233_KRVEDAYILTCNVSLEYEK (UniProt P40227) | 0.071 | -0.45 |
| CEP350_Q5VT06_3083_DRVDHILVQELHEEEAQWVNYDEDELCVK (UniProt Q5VT06) | -0.0902 | -0.164 |
| CEP55_Q53EZ4_359_VALLEQQMQACTLDFENEK (UniProt Q53EZ4) | 0.0177 | -0.118 |
| CDCA7L_Q96GN5_422_CATGILIHLAK (UniProt Q96GN5) | -0.151 | -0.776 |
| CCT8_P50990_149_KAHEILPNLVCCSAK (UniProt P50990) | 0.0395 | -0.739 |
| CEP68_Q76N32_465_RPTCTESR (UniProt Q76N32) | -0.05 | -0.0517 |
| CD70_P32970_133_HHPTTLAVGICSPASR (UniProt P32970) | -0.345 | 0.00996 |
| CDC16_Q13042_544_CYDFDVHTMK (UniProt Q13042) | -0.163 | -0.226 |
| CENPV_Q7Z7K6_240_SNPGGFGIAPHCLDEGTVR (UniProt Q7Z7K6) | -0.111 | -0.164 |
| CDC27_P30260_673_ALDINPQSSVLLCHIGVVQHALKK (UniProt P30260) | 0.142 | -0.243 |
| CDC23_Q9UJX2_500_YIQDIYSCGEIVEHLEESTAFR (UniProt Q9UJX2) | -0.0959 | -0.296 |
| CDKN2AIP_Q9NXV6_503_SSQESIVCELR (UniProt Q9NXV6) | 0.153 | -0.247 |
| CD93_Q9NPY3_53_LSAAEAQNHCNQNGGNLATVK (UniProt Q9NPY3) | -0.241 | -0.213 |
| CEP128_Q6ZU80_989_DSCSSSER (UniProt Q6ZU80) | -0.199 | -0.274 |
| CEP250_Q9BV73_110_CESLAEVNTQLR (UniProt Q9BV73) | 0.0275 | -0.31 |
| CCT8_P50990_148_AHEILPNLVCCSAK (UniProt P50990) | 0.0236 | 0.162 |
| CCT7_Q99832_450_QLCDNAGFDATNILNK (UniProt Q99832) | 0.0314 | 0.0421 |
| CEP128_Q6ZU80_433_EIQNHFDTCEAER (UniProt Q6ZU80) | 0.0384 | 0.225 |
| CENPV_Q7Z7K6_154_HTGGCHCGAVR (UniProt Q7Z7K6) | 0.121 | 0.261 |
| CEP350_Q5VT06_1557_QESPSVPSCK (UniProt Q5VT06) | -0.113 | -0.568 |
| CENPF_P49454_2961_YCSLLISHEK (UniProt P49454) | 0.225 | 0.291 |
| CDC45_O75419_267_NEDEENTLSVDCTR (UniProt O75419) | -0.0624 | -0.273 |
| CD59_P13987_70_FEHCNFNDVTTR (UniProt P13987) | -0.114 | -0.076 |
| CEP192_Q8TEP8_396_QGAECPHQNK (UniProt Q8TEP8) | -0.122 | -0.369 |

A second format for some results above:
Target | probe-labelled cysteine peptide fold change (10 µM) | probe-labelled cysteine peptide fold change (50 µM)
CDK5RAP2_Q96SN8_508_DLEVIQQNCYLMAAEDLELR (UniProt Q96SN8) | -0.00437 | 0.476
CCT6A_P40227_233_KRVEDAYILTCNVSLEYEK (UniProt P40227) | 0.071 | -0.45
CEP350_Q5VT06_3083_DRVDHILVQELHEEEAQWVNYDEDELCVK (UniProt Q5VT06) | -0.0902 | -0.164
CEP55_Q53EZ4_359_VALLEQQMQACTLDFENEK (UniProt Q53EZ4) | 0.0177 | -0.118
CDCA7L_Q96GN5_422_CATGILIHLAK (UniProt Q96GN5) | -0.151 | -0.776
CCT8_P50990_149_KAHEILPNLVCCSAK (UniProt P50990) | 0.0395 | -0.739
CEP68_Q76N32_465_RPTCTESR (UniProt Q76N32) | -0.05 | -0.0517
CD70_P32970_133_HHPTTLAVGICSPASR (UniProt P32970) | -0.345 | 0.00996
CDC16_Q13042_544_CYDFDVHTMK (UniProt Q13042) | -0.163 | -0.226
CENPV_Q7Z7K6_240_SNPGGFGIAPHCLDEGTVR (UniProt Q7Z7K6) | -0.111 | -0.164
CDC27_P30260_673_ALDINPQSSVLLCHIGVVQHALKK (UniProt P30260) | 0.142 | -0.243
CDC23_Q9UJX2_500_YIQDIYSCGEIVEHLEESTAFR (UniProt Q9UJX2) | -0.0959 | -0.296
CDKN2AIP_Q9NXV6_503_SSQESIVCELR (UniProt Q9NXV6) | 0.153 | -0.247
CD93_Q9NPY3_53_LSAAEAQNHCNQNGGNLATVK (UniProt Q9NPY3) | -0.241 | -0.213

Later entries:

| Target | probe-labelled cysteine peptide fold change (10 µM) | probe-labelled cysteine peptide fold change (50 µM) |
| --- | --- | --- |
| CEP55_Q53EZ4_443_CNIQYPATEHR (UniProt Q53EZ4) | 0.0641 | -0.15 |
| CFAP36_Q96G28_138_NGVLPDCLTDGSDVVSDLEHEEMK (UniProt Q96G28) | -0.129 | -0.254 |
| CES1_P23141_274_PLAEQIAITAGCK (UniProt P23141) | -0.275 | 0.523 |
| CD38_P28907_119_LGTQTVPCNK (UniProt P28907) | -0.194 | -0.112 |
| CEP250_Q9BV73_630_VGLNQQLLQLEEENQSVCSR (UniProt Q9BV73) | 0.113 | 0.175 |
| CDC42_P60953_18_TCLLISYTTNK (UniProt P60953) | 0.711 | 0.582 |
| CFAP20_Q9Y6A4_61_RITDNDIQSLVLEIEGTNVSTTYITCPADPKK (UniProt Q9Y6A4) | 0.115 | 0.0876 |
| CDS1_Q92903_10_GSCPGPR (UniProt Q92903) | 0.244 | 0.146 |
| CENPC_Q03188_472_NMEEHEEMGNDCVSK (UniProt Q03188) | -0.0503 | 0.352 |
| CDCA4_Q9BXL8_10_CVGHEEDVEGALAGLK (UniProt Q9BXL8) | -0.0781 | 0.0716 |
| CEPT1_Q9Y6K0_30_CGDSHPESPVGFGHMSTTGCVLNK (UniProt Q9Y6K0) | -2.38 | -2.51 |
| CEP85_Q6P2H3_380_PAPFGDVCLLR (UniProt Q6P2H3) | -0.0545 | -0.383 |
| CCT8_P50990_136_IGLSVSEVIEGYEIACR (UniProt P50990) | 0.491 | 0.391 |
| CEP97_Q8IW35_484_AGLLPCPEPTIISAILK (UniProt Q8IW35) | -0.107 | 0.142 |
| CEP97_Q8IW35_34_LGPNLPCEADIHTLILDK (UniProt Q8IW35) | -0.0455 | -0.0325 |
| CD40_P25942_119_GTSETDTICTCEEGWHCTSEACESCVLHR (UniProt P25942) | -0.531 | 0.0643 |
| CELF1_Q92879_177_AMHQAQTMEGCSSPMVVK (UniProt Q92879) | -0.311 | -0.155 |
| CDK4_P11802_215_RKPLFCGNSEADQLGK (UniProt P11802) | -0.166 | -0.0919 |
| CDK1_P06493_119_SYLYQILQGIVFCHSR (UniProt P06493) | -0.0167 | -0.101 |
| CCT7_Q99832_326_TMMACGGSIQTSVNALSADVLGR (UniProt Q99832) | 0.0223 | -0.163 |
| CD3EAP_O15446_150_FCAFGGNPPVTGPR (UniProt O15446) | -0.0579 | 0.00679 |
| CEP170_Q5SW79_967_CSTGSPSK (UniProt Q5SW79) | -0.0458 | -0.497 |
| CD38_P28907_275_NIQFSCK (UniProt P28907) | -0.246 | 0.0472 |
